Measured values as given in PubChem BioAssay AID1487 (National Center for Advancing Translational Sciences (NCATS), 2009).
This is one part of the list. Further columns of the screen follow, without active or inactive calls. The list favours compounds with an active or inconclusive main result. The note in brackets gives the kind of curve behind each potency; many fits are weak.

Assay: qHTS Assay for Modulators of Lamin A Splicing
Conditions: HeLa LMNA splicing GFP/RFP minigene ratio, 48 h
Summary of the method: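 S3 HeLa cells stably expressing lamin A-EGFP splicing minigene plus DsRed2, 600 cells/well, 48 h compound exposure at 37C. Laser-scanning cytometry; analysed as GFP (500-530 nm)/RFP (575-640 nm) total intensity ratio; 0.5% DMSO vehicle.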

[1] = measured here: RFP viability control channel
[2] = measured here: GFP splicing reporter channel

Structure (SMILES)	AC50 [1]	AC50 [2]
Cc1cccc(NC(=O)c2ccc(C3SCC(=O)N3CCc3ccccc3)cc2)c1C (stereo not given)	12.6 µM [rising, partial curve]	
Cc1noc(C)c1S(=O)(=O)N1CCCC(C(=O)Nc2ccc(Cl)cn2)C1 (stereo not given)		35.5 µM [rising, single point]
COc1cc(C(Nc2ccccn2)c2ccc3ccc(C)nc3c2O)cc(OC)c1O (stereo not given)	10 µM [rising, partial curve]	14.1 µM [rising, partial curve]
CS(=O)(=O)N(CC(=O)Nc1ccccc1C(=O)NCc1ccco1)c1ccc2c(c1)OCCO2	22.4 µM [rising, single point]	
Cc1sc2nc(CSc3ccccc3)nc(N3CCN(C)CC3)c2c1C		15.8 µM [rising, partial curve, poor fit]
COc1cccc(-c2ccc3ncnc(N4CCOCC4)c3c2)c1	10 µM [falling, partial curve]	11.2 µM [falling, partial curve]
O=C(CSc1nnc(-c2ccncc2)n1-c1ccccc1)Nc1ccc(Cl)c(Cl)c1	22.4 µM [falling, partial curve, poor fit]	
CN(C)S(=O)(=O)c1ccc(C(=O)Nc2ccccn2)cc1	15.8 µM [rising, partial curve, poor fit]	10 µM [rising, partial curve]
COc1ccc(NC(=O)CSC2=Nc3ccccc3C3=NC(CC(=O)NCc4ccco4)C(=O)N23)cc1 (stereo not given)		17.8 µM [rising, single point]
O=C(CCSc1ccccc1)Nc1ccccc1Br	4.47 µM [rising, partial curve]	
c1ccc(CN2CCC(Nc3nc(-c4ccccc4)nc4ccccc34)CC2)cc1	31.6 µM [rising, single point]	15.8 µM [rising, single point]
CC(OC(=O)c1cc2sccc2n1C)C(=O)NCC1CCCO1 (stereo not given)	35.5 µM [rising, single point]	
COc1ccc(-c2ccccc2)cc1NCc1ccc(OC)c(OC)c1	25.1 µM [rising, single point]	12.6 µM [rising, single point]
O=C(NCCCN1CCOCC1)C(=O)N/N=C/c1c(Cl)cccc1Cl	6.31 µM [falling, single point]	
CCOc1cc(CNC(=O)c2ccccc2NC(=O)c2nsc3ccccc23)ccc1OC	35.5 µM [falling, partial curve]	8.91 µM [falling, partial curve, poor fit]
CCOC(=O)c1sc(NC(=O)c2ccc(C)s2)cc1C	0.0251 µM [falling, single point]	14.1 µM [falling, single point]
CN1CCc2c1nc1ccccc1c2N=C1CCCN1Cc1ccccc1	11.2 µM [rising, single point]	7.08 µM [rising, single point]
C/C(CC(=O)Nc1ccc(Cl)c(C(F)(F)F)c1)=N\NC(=O)c1cccc(O)c1	14.1 µM [falling, partial curve, poor fit]	35.5 µM [falling, partial curve, poor fit]
COc1ccc(S(=O)(=O)c2c(Nc3c(C)cccc3C)sc(C(=O)c3ccc4c(c3)OCO4)c2N)cc1		15.8 µM [falling, partial curve, poor fit]
Clc1ccc(OCCCc2nc(-c3cccnc3)no2)c(Cl)c1	31.6 µM [rising, single point]	17.8 µM [rising, single point]
Cn1c(-[n+]2c(-c3ccccc3)cc(-c3ccccc3)cc2-c2ccccc2)nc2cc([N+](=O)[O-])ccc21	3.98 µM [rising, single point]	
COc1ccc(NC(C)C(=O)Nc2cc(C(F)(F)F)ccc2N2CCOCC2)c(OC)c1 (stereo not given)	25.1 µM [rising, single point]	
CCCC(CCC)=NNc1ccc(S(=O)(=O)Nc2ccccc2OC)cc1[N+](=O)[O-]	25.1 µM [rising, single point]	11.2 µM [rising, partial curve]
COC(=O)c1c(NC(=O)/C=C/C(=O)O)sc(Cc2ccccc2)c1C	35.5 µM [rising, single point]	
Cc1cc(C)c(C)c(S(=O)(=O)N2CCN(CC(=O)NC(=O)NCc3ccccc3)CC2)c1C	0.708 µM [falling, full curve]	
O=c1[nH]c2ccccc2n1Cc1ccc(Cl)cc1	20 µM [rising, single point]	
O=S(=O)(c1ccc(Oc2ccc(Br)cc2F)nc1)N1CCCCC1	31.6 µM [rising, single point]	11.2 µM [rising, partial curve]

Arranged by length of the SMILES (low to high): part of the list above.
Structure (SMILES)	AC50 [1]	AC50 [2]
O=c1[nH]c2ccccc2n1Cc1ccc(Cl)cc1	20 µM [rising, single point]	
COC(=O)c1c(NC(=O)/C=C/C(=O)O)sc(Cc2ccccc2)c1C	35.5 µM [rising, single point]	
COc1ccc(S(=O)(=O)c2c(Nc3c(C)cccc3C)sc(C(=O)c3ccc4c(c3)OCO4)c2N)cc1		15.8 µM [falling, partial curve, poor fit]
Cn1c(-[n+]2c(-c3ccccc3)cc(-c3ccccc3)cc2-c2ccccc2)nc2cc([N+](=O)[O-])ccc21	3.98 µM [rising, single point]	

Next part.

Structure (SMILES)	AC50 [1]	AC50 [2]
Cc1ccc(-c2nnc(SCC(=O)c3ccc(Cl)cc3)n2-c2ccccc2)cc1	35.5 µM [falling, single point]	
O=c1c2ccccc2nc(SCc2cccc(F)c2)n1Cc1ccco1	10 µM [rising, partial curve]	
Cc1cc(/C=N/n2cnnc2)c(C)n1-c1ccc(Cl)cc1		28.2 µM [falling, partial curve, poor fit]
COc1cc(/C=N\Nc2ccc([N+](=O)[O-])cc2)ccc1OCC(=O)Nc1ccc(C)c(C)c1	3.98 µM [falling, partial curve, poor fit]	5.62 µM [falling, single point]
N/C(=N\OC(=O)COc1ccc2ccccc2c1Br)c1cccnc1	14.1 µM [rising, single point]	
COc1ccc(CNc2nc3ccccc3n2Cc2ccc(C)cc2)cc1OC	10 µM [rising, partial curve]	
Cc1ccsc1/C=N\NC(=O)Cn1nnc2ccccc21	20 µM [rising, single point]	
CCn1c2c(c3cc(OCC(C)C)ccc31)CCCC2=O	10 µM [rising, partial curve, poor fit]	15.8 µM [rising, partial curve, poor fit]
C#CCN1C(=O)C(O)(CC(=O)/C=C/c2ccco2)c2ccccc21 (stereo not given)	0.00794 µM [rising, full curve]	0.01 µM [rising, full curve, poor fit]
c1ccc(N(c2ccccc2)c2nc(-n3ccnc3)nc(-n3ccnc3)n2)cc1		0.891 µM [falling, partial curve, poor fit]
Cc1oc(-c2ccccc2F)nc1CS(=O)(=O)CC(=O)N1CCN(Cc2ccccc2)CC1	35.5 µM [rising, single point]	35.5 µM [rising, single point]
CCn1nc(C(=O)Nc2ccc(S(=O)(=O)Nc3ncccn3)cc2)c2ccccc2c1=O		0.447 µM [falling, partial curve]
Cc1c(Cl)cccc1NC(=O)Cn1cccc1	0.631 µM [falling, partial curve, poor fit]	
CCc1[nH]nc2c1C(C(C)C)C(C#N)=C(N)O2 (stereo not given)	15.8 µM [rising, partial curve]	
Brc1ccc(CSc2nnc(-c3ccccn3)n2Cc2ccco2)cc1	35.5 µM [rising, single point]	35.5 µM [rising, single point]
Cn1c(CSc2nc3ccccc3s2)nnc1SCC(=O)NCCCN1CCOCC1	5.62 µM [rising, single point]	
CCn1nc(C)c(NC(=O)c2cc(Br)ccc2Cl)c1C	3.98 µM [falling, partial curve, poor fit]	4.47 µM [falling, partial curve]
CCN(CC)C(=S)SCC(=O)Nc1nc(-c2ccccc2)c(-c2ccccc2)o1	11.2 µM [rising, partial curve]	
CCOc1ccc(NC(=S)N(CCc2c(C)[nH]c3ccc(C)cc23)Cc2ccncc2)cc1	11.2 µM [rising, partial curve]	10 µM [rising, partial curve]
CCn1cc(CN2CCN(Cc3ccsc3)C(CCO)C2)cn1 (stereo not given)	0.00316 µM [falling, full curve, poor fit]	
CCC(CC)c1nnc(NC(=O)c2c(C)nn(Cc3ccccc3Cl)c2C)s1	20 µM [rising, partial curve, poor fit]	17.8 µM [rising, partial curve, poor fit]
CC(=O)Cn1nnc2sc3c(c2c1=O)CCC(C(C)(C)C)C3 (stereo not given)		0.0447 µM [rising, full curve]
O=C(Cn1c2ccc(F)cc2c2nc3n(c(=O)c21)CCS3)Nc1ccccc1F	11.2 µM [falling, single point]	10 µM [falling, partial curve]
Cc1cc(C)cc(N2CC(O)=C(c3nc4ccccc4c(=O)[nH]3)C2=N)c1	35.5 µM [falling, single point]	
COc1cc(S(=O)(=O)N2CCOCC2)ccc1NC(=O)CSc1n[nH]c(=O)[nH]c1=O	3.55 µM [rising, single point]	
CCC(CC)C1=NN2C(=N)/C(=C\c3cc(C)n(-c4cccc(C)c4)c3C)C(=O)N=C2S1	12.6 µM [rising, partial curve]	
CC(C)(C)C(=O)NC(=S)NNC(=O)c1sc2ccccc2c1Cl		12.6 µM [falling, partial curve]
